These are yes or no findings as the source states them, for the method shown. Binding can be weak; no strength is given. Where a sequence is shown, tags or fusion partners need not be part of it.

The assay concerns the target T1, full-length ZO3 with C-terminal mEGFP (UniProt O95049).
T1 sequence: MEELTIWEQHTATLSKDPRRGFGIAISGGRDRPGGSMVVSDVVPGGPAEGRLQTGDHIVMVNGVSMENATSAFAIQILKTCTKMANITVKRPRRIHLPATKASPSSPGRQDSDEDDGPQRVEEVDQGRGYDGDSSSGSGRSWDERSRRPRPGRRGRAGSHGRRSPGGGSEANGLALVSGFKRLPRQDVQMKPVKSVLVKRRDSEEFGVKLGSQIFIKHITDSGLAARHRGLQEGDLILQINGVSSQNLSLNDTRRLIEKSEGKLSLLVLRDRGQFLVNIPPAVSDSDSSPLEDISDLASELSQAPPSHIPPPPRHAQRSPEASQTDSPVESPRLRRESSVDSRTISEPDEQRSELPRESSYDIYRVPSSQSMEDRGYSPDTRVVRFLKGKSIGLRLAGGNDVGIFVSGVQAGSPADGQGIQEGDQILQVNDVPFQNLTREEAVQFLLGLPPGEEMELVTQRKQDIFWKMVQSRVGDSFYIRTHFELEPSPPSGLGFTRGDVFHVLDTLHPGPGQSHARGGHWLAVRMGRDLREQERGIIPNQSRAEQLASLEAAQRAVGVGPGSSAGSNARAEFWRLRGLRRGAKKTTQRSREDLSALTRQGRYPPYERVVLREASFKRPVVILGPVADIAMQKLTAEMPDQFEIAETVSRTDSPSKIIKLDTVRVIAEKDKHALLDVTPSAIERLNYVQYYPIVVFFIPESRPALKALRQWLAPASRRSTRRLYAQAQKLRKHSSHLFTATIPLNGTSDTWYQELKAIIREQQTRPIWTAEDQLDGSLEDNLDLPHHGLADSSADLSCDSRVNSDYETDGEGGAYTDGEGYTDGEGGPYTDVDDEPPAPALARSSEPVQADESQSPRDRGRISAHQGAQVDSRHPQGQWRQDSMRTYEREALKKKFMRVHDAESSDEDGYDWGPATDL
Description: client partitioning into phase-separated droplets.
Regarding “ZO1 C-terminal fragment, mCherry-labelled (domain or fragment)”, the binding entry is on record as “no binding”.
Under “ZO1 N-terminal fragment, mCherry-labelled (domain or fragment)” stands “binds”; under “ZO3 C-terminal fragment, mCherry-labelled (domain or fragment)”, “no binding”; under “ZO3 N-terminal fragment, mCherry-labelled (domain or fragment)”, “binds”.
